Results from publication PMC3871805.
Construct, isoform or probe ends are uncertain for at least one entry. At least one verdict rests on a figure or table, not on a statement of the authors. Tags and fusion partners may be left off the protein sequences shown.

These sequences were tested against T1, 6His-WRKY40 (UniProt Q9SAH7) (assay: EMSA). Conditions: 50 ng His-WRKY40, 26 ng DIG-labelled fragment; competition with 5- to 20-fold molar excess of unlabelled fragment; buffer as in Shang et al. 2010 (not given); recombinant protein; protein details: 6xHis; label: digoxigenin-dUTP.
T1 sequence (looked up, limits assumed): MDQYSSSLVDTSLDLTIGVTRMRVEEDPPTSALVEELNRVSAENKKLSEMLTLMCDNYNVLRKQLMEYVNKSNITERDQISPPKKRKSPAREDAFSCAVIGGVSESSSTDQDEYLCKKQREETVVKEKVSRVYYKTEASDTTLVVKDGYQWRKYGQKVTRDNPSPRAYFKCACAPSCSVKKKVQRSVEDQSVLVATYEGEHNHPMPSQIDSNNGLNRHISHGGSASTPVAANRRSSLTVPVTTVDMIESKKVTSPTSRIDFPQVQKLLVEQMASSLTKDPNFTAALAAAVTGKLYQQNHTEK

Binding result, binds:
AAGTTTTAGTTATTGGGTTGTAGCAAAAATCATTCTTGTCACGAGGGTGTAAGTAAGTGTAACCGTTGAAGTATTCAGTGGCTCATAACTTGTGGTCACAAAACGCTTGGCTGCAATGAAAAAATCAAAACAAATGCTGGTGGACTAGAGATTGCCACGTAAGACTACTAAACGATAAAACAAAAATCTTAAAATCCAATGAATG (double strand) [pLHCB1-2 (p2)]
ATTCATTGCTGTCATTTACATTTCAATAAGAAAATAAATTAATTTCCACGTGTCATTTTATTTTCCTCTCACAATTTAGATTTAGATAAGTAAAGTATTAGAAAAATGTAAATACTGAGTTGGCAGAATAAGACAGTGGTGAGTGTGGGTGATGTGGATATGGTGAAGTAGTTTCTGACTCCTAATTGGTCAGAAATCTATC (double strand) [pLHCB6]
CATAACTTGTGGTCACAAAACGCTTGGCTGCAATGAAAAAATCAAAACAAATGCTGGTGGACTAGAGATTGCCACGTAAGACTACTAAACGATAAAACAAAAATCTTAAAATCCAATGAATGAACAGATAAAGATTACTTCAGATATAACAAACGTTACAATATCCCTATATAATCCAACACTATCGAACCAGTTTTAATCACTCTCACTCACAAGTTAGTCATAA (double strand) [pLHCB1-1 (p1)]
CTATTACAACCGTTTAATTGAACCATTGCAATATTTAGTTTATTTGACGAACCATTAAAATTATTGGTTTATTTTATGAACTCTTGTAATATTTTATATATAAATAGTAGCGATCTGACTAAATGACTTATACGTTTGGGTTTCTCAATTTTGTAACTGTGTTTGCATTGTAATGGCTCATGACCTAAGC (double strand) [pLHCB2-2 (p2)]
GATAAAGAGTAAAACGTCAAAGTTTTAAGGTGATATCACATAATTCATGAGATTATTTTGGTTATTGGATAAAGTGACGATGAAATCGATTCATAATTGAAATTAAACTGGTAGTGATGATGAACTAATTACCATTGAAAATATTGATATTTATGTGTGGGTAAATGCTTTTTATAATGTTAC (double strand) [pLHCB1-3 (p3)]
TCTCTACCATTATGTGACTCTTGTAAGAGCCATAGCCAAGGAAAATTACTTAAGTTAGGTAATGTTCTGTGAAATATATTTTTCCTCCTCTGTAAATAAAGTGTGTTTTTCTATTTACTTGCAGTTTGACTTCTTGATCTGGTAAGTGTTGGCTTTTAATATATGATTTAGTGTGACATAGCGAATCATGC (double strand) [pLHCB2-1 (p1)]
